From BindingDB's records for PubMed 1464308 (Cnrs, 1992)
pKi: −log10 of the molar value.

Amino acid sequences for entries named in this document (tags omitted).
UniProt P30966, whole entry: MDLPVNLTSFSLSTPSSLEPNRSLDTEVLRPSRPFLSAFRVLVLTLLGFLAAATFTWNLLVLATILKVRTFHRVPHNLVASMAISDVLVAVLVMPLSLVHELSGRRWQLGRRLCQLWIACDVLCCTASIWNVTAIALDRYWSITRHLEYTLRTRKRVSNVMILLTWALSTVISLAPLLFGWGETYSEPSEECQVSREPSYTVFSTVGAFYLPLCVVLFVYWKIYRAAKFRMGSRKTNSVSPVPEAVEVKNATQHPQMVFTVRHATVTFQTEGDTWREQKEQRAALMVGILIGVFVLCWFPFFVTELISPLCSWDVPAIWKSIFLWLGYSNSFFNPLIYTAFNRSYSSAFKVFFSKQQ

Target: 5-hydroxytryptamine receptor 5A (Mus musculus, UniProt P30966)

Structure (SMILES): CC(C)NC[C@H](O)COc1cccc2ccccc12 [Propanolol,(+/-)]
- pKi: < 5.00
